No constants are given. Whether binding was seen depends on the method and setting. Binding seen in cells or lysates may run through a third protein. Here binding means that the protein was enriched with, or labelled near, the bait; the list need not be complete.
T1: Ataxin-2 (wildtype, mouse) (mouse (endogenous in cerebellum)) (UniProt O70305)
T1 sequence: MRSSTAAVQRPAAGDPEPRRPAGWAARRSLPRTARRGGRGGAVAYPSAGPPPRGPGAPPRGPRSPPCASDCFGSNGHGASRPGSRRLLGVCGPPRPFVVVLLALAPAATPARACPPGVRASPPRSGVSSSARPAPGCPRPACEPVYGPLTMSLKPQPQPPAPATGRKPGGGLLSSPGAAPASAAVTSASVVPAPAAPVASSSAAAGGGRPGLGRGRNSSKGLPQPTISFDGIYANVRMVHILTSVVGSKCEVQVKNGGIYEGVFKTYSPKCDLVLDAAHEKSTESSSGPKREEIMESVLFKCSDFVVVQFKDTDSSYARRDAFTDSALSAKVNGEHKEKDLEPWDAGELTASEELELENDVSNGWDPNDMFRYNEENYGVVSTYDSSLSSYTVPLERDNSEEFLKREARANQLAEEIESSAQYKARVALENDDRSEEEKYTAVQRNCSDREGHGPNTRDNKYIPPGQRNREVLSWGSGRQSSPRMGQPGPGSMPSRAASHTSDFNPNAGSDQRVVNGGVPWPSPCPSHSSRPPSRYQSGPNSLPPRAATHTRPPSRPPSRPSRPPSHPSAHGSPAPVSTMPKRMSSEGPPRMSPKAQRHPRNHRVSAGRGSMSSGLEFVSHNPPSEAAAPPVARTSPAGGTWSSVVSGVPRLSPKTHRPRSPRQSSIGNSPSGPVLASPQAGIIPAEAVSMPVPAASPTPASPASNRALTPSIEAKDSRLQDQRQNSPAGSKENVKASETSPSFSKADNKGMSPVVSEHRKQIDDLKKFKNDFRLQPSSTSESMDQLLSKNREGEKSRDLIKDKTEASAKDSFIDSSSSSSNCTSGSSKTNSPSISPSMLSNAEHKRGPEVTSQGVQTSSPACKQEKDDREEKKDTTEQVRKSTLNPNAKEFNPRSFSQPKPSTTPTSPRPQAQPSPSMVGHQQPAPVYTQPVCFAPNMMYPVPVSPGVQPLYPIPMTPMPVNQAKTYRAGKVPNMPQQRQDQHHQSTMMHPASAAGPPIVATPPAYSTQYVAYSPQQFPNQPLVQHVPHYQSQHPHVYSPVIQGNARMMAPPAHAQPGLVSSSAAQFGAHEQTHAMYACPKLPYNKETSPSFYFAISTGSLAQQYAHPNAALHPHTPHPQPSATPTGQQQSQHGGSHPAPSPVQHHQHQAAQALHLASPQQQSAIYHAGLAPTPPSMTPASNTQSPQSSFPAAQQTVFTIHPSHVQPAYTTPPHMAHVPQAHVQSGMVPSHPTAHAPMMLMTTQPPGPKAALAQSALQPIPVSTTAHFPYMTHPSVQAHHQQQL

Amino acid sequences for entries named in this document (tags omitted).
UniProt Q9D0R8: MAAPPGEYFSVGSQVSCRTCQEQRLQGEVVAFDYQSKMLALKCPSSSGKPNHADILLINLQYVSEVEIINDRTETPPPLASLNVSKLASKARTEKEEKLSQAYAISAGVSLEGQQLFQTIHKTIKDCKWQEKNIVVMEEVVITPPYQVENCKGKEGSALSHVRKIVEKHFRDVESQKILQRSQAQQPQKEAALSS
UniProt Q61879: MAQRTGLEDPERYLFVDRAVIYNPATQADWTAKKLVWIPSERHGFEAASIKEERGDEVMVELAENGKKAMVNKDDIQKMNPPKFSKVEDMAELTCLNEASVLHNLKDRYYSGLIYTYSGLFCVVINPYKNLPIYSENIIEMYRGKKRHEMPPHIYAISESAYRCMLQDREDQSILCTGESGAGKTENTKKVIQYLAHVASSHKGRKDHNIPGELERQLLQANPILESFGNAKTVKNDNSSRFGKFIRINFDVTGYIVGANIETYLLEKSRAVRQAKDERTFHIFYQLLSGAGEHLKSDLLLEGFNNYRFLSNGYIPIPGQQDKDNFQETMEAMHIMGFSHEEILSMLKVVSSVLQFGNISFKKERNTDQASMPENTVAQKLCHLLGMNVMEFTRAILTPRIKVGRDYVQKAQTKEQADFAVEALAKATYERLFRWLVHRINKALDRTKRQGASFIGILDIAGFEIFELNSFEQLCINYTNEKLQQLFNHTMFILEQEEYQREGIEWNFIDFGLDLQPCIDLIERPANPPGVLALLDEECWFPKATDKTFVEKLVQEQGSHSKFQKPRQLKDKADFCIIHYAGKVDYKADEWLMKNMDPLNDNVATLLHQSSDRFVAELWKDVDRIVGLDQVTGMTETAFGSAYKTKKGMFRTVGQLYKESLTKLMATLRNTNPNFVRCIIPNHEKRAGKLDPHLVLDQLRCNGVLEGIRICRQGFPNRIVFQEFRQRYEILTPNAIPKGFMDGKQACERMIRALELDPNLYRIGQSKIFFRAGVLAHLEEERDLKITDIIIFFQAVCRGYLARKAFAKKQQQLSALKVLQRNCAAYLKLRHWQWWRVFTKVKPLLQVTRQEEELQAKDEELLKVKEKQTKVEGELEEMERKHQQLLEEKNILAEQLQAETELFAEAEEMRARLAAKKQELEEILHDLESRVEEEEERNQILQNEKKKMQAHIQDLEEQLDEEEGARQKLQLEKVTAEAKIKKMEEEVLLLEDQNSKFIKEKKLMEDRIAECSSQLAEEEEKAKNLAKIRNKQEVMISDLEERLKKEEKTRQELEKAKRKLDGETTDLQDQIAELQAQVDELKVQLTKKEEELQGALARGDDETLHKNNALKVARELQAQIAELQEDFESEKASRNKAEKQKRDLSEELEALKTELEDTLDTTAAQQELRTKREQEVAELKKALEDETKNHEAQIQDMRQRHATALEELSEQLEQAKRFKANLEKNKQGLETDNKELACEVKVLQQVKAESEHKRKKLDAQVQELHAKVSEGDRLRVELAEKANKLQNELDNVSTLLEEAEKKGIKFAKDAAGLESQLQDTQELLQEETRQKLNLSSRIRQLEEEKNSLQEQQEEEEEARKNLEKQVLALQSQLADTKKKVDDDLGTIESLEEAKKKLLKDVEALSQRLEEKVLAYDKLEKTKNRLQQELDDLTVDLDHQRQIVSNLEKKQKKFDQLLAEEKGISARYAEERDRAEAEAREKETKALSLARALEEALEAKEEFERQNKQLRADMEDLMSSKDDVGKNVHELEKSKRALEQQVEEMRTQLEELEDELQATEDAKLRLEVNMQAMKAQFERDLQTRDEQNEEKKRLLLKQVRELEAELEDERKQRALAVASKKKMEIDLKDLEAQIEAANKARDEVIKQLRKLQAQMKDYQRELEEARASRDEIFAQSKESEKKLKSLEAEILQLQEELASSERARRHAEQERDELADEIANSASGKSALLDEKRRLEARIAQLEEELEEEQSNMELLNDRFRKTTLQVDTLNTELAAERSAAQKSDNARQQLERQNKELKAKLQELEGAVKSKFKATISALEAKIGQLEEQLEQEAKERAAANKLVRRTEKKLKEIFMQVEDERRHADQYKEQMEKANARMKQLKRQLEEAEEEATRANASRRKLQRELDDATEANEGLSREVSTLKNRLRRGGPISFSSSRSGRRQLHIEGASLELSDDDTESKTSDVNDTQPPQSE
UniProt Q6URW6: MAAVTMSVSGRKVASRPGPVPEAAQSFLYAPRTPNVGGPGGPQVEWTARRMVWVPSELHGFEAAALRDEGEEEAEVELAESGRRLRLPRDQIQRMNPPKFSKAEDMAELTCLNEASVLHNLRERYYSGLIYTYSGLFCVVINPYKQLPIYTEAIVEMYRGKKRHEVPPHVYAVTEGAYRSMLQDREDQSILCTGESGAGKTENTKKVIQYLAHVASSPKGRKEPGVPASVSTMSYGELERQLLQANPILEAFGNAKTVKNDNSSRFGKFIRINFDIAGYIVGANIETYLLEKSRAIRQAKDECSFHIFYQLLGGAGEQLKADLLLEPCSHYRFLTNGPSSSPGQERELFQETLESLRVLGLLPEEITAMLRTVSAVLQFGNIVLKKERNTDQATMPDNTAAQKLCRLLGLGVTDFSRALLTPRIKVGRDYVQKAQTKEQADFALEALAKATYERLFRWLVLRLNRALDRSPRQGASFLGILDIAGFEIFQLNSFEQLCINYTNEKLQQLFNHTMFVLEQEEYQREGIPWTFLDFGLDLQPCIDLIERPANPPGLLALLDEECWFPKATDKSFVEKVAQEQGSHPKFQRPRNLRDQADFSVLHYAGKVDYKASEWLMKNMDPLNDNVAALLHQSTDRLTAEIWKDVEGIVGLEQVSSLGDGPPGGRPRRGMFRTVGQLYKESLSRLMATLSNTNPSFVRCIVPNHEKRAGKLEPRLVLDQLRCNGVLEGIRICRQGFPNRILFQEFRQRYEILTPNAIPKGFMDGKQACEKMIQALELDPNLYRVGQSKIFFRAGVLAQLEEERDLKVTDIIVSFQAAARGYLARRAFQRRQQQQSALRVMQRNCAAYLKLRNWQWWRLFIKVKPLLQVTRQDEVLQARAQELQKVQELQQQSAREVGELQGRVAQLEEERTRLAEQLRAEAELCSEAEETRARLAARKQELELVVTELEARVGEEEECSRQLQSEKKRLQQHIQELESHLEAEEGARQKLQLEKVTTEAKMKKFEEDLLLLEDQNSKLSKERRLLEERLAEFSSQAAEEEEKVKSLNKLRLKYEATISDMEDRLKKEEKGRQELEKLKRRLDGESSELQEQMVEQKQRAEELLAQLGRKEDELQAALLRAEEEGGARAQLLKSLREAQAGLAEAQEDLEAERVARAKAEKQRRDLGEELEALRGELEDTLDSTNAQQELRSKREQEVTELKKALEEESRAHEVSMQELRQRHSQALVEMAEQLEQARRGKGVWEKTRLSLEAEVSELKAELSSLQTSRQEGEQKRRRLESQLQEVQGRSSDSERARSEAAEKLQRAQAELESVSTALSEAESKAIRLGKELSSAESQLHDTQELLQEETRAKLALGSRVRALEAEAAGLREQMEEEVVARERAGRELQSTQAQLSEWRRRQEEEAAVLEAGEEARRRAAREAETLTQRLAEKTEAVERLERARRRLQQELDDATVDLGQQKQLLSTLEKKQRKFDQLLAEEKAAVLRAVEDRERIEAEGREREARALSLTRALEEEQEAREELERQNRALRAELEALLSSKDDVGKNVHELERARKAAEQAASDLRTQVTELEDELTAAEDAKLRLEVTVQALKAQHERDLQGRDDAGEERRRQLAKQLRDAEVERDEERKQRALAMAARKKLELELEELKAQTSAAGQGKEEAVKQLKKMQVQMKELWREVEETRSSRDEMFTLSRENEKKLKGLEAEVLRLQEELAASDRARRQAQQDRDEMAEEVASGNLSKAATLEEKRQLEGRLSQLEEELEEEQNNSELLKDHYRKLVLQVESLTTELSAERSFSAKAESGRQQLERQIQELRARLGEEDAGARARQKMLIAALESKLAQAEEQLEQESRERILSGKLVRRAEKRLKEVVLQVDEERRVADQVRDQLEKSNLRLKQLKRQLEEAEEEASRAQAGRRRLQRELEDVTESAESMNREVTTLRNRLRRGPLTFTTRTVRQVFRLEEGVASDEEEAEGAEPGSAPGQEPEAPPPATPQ
UniProt P17742: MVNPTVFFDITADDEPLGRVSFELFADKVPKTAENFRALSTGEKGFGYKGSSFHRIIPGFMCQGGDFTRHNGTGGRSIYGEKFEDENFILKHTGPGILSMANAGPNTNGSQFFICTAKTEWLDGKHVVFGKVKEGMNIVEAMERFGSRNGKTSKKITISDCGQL
UniProt Q64331: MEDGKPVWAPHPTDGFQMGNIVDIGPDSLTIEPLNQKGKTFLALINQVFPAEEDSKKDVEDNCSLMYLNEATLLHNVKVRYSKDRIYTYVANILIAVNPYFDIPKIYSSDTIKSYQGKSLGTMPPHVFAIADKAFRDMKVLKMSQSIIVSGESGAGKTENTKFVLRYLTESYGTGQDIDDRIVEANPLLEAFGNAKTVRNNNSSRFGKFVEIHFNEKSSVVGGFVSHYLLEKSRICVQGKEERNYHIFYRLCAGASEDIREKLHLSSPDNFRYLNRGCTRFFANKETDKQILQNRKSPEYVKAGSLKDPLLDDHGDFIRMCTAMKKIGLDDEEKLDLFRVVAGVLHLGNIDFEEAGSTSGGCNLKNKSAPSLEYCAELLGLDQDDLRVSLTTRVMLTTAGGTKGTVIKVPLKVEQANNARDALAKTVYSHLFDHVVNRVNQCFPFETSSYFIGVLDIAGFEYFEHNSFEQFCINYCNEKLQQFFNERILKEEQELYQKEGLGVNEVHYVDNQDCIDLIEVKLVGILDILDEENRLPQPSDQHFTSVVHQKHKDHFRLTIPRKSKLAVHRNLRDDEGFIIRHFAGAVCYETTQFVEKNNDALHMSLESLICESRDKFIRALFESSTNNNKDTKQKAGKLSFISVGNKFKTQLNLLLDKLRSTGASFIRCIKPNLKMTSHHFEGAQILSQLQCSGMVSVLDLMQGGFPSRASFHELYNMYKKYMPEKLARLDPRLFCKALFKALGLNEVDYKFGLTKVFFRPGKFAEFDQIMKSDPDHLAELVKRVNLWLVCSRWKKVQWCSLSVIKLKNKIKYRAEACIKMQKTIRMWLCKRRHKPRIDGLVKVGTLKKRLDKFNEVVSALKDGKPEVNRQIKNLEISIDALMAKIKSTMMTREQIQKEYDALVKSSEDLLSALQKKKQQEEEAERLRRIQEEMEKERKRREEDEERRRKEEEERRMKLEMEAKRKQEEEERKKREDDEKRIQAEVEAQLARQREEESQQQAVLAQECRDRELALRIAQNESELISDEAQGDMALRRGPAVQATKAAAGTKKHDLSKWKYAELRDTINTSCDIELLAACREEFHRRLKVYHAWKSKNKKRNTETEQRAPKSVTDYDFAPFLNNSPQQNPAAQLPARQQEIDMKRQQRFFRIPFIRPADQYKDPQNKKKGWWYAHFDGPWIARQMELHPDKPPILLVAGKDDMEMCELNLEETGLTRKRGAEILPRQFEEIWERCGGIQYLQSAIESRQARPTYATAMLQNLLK


Target: T1, Ataxin-2 (wildtype, mouse) (mouse (endogenous in cerebellum))
Test: affinity purification with mass spectrometry

Row | Molecule | binding
1 | LSM12 (from UniProt Q9D0R8 1-195) | binds
2 | MYH10 (from UniProt Q61879 1-1976) | binds
3 | MYH14 (from UniProt Q6URW6 1-2000) | binds
4 | peptidyl prolyl isomerase A (from UniProt P17742 1-164) | binds
5 | unconventional myosin VI (from UniProt Q64331 1-1262) | binds
6 | SHANK2 (protein, UniProt Q80Z38 1-1476) MKSLLNAFTKKEVPFREAPAYSNRRRRPPNTLAAPRVLLRSNSDNNLNAGAPEWAVCSAATSHRSLSPQLLQQTPSKPDGATKSLGSYTPGPRSRSPSLNRLGGTAEDGKRTQPHWHVGSPFTPGANKDSLSTFEYPGPRRKLYSAVPGRLFVAVKPYQPQVDGEIPLHRGDRVKVLSIGEGGFWEGSARGHIGWFPAECVEEVQCKPRDSQAETRADRSKKLFRHYTVGSYDSFDAASDCIIEDKTVVLQKKDNEGFGFVLRGAKADTPIEEFTPTPAFPALQYLESVDEGGVAWQAGLRTGDFLIEVNNENVVKVGHRQVVNMIRQGGNHLILKVVTVTRNLDPDDTARKKAPPPPKRAPTTALTLRSKSMTAELEELGLSLVDKASVRKKKDKPEEIVPASKPSRTAENVAIESRVATIKQRPTSRCFPAASDVNSVYERQGIAVMTPTVPGSPKGPFLGLPRGTMRRQKSIDSRIFLSGITEEERQFLAPPMLKFTRSLSMPDTSEDIPPPPQSVPPSPPPPSPTTYNCPRSPTPRVYGTIKPAFNQNPVVAKVPPATRSDTVATMMREKGMFYRRELDRFSLDSEDVYSRSPAPQAAFRTKRGQMPENPYSEVGKIASKAVYVPAKPARRKGVLVKQSNVEDSPEKTCSIPIPTIIVKEPSTSSSGKSSQGSSMEIDPQATEPGQLRPDDSLTVSSPFAAAIAGAVRDREKRLEARRNSPAFLSTDLGDEDVGLGPPAPRMQASKFPEEGGFGDEDETEQPLLPTPGAAPRELENHFLGGGEAGAQGEAGGPLSSTSKAKGPESGPAAPLKSSSPAGPENYVHPLTGRLLDPSSPLALALSARDRAMQESQQGHKGEAPKADLNKPLYIDTKMRPSVESGFPPVTRQNTRGPLRRQETENKYETDLGKDRRADDKKNMLINIVDTAQQKSAGLLMVHTVDVPMAGPPLEEEEDREDGDTKPDHSPSTVPEGVPKTEGALQISAAPEPAVAPGRTIVAAGSVEEAVILPFRIPPPPLASVDLDEDFLFTEPLPPPLEFANSFDIPDDRAASVPALADLVKQKKNDTSQPPTLNSSQPANSTDSKKPAGISNCLPSSFLPPPESFDAVTDSGIEEVDSRSSSDHHLETTSTISTVSSISTLSSEGGESMDTCTVYADGQAFVVDKPPVPPKPKMKPIVHKSNALYQDTLPEEDTDGFVIPPPAPPPPPGSAQAGVAKVIQPRTSKLWGDVPEVKSPILSGPKANVISELNSILQQMNRGKSVKPGEGLELPVGAKSANLAPRSPEVMSTVSGTRSTTVTFTVRPGTSQPITLQSRPPDYESRTSGPRRAPSPVVSPTELSKEILPTPPPPSATAASPSPTLSDVFSLPSQSPAGDLFGLNPAGRSRSPSPSILQQPISNKPFTTKPVHLWTKPDVADWLESLNLGEHKETFMDNEIDGSHLPNLQKEDLIDLGVTRVGHRMNIERALKQLLDR | binds
7 | STAU1 (protein, UniProt Q9Z108 1-487) MYKPVDPHSRMQSTYSYGMRGGAYPPRYFYPFPVPPLLYQVELSVGGQQFNGKGKMRPPVKHDAPARALRTLQSEPLPERLEVNGREAEEENLNKSEISQVFEIALKRNLPVNFEVARESGPPHMKNFVTRVSVGEFVGEGEGKSKKISKKNAARAVLEQLRRLPPLPAVERVKPRIKKKSQPTCKTAPDYGQGMNPISRLAQIQQAKKEKEPEYMLLTERGLPRRREFVMQVKVGHHTAEGVGTNKKVAKRNAAENMLEILGFKVPQAQPAKPALKSEEKTPVKKPGDGRKVTFFEPSPGDENGTSNKDEEFRMPYLSHQQLPAGILPMVPEVAQAVGVSQGHHTKDFTRAAPNPAKATVTAMIARELLYGGTSPTAETILKSNISSGHVPHGPRTRPSEQLYYLSRAQGFQVEYKDFPKNNKNECVSLINCSSQPPLVSHGIGKDVESCHDMAALNILKLLSELDQQSTEMPRTGNGPVSACGRC | binds
